PubChem BioAssay AID1259424 – University of Nebraska Medical Center, 2018

Assay: 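Find knockdowns that reproduce the expression shifts seen after KSR1 loss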 (primary screen)
Cells: human HCT116 colon cancer cells
Reagent: siRNA pool against human genes, 50 nM
Read-out: 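Six signature mRNAs by branched-DNA multiplex assay, scaled to two housekeeping genes and non-targeting median, log2; matched to mean KSR1 knockdown profile by Pearson correlation and euclidean distance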
Scale: mean correlation with KSR1 profile and KSR1 correlation: higher = expression change more like KSR1 knockdown; mean distance from KSR1 profile: higher = expression change less like KSR1 knockdown
This is an unselected part of about 14,000 reagents tested. 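Higher correlation or smaller distance means closer resemblance to KSR1 loss; control wells, including KSR1 knockdowns, recur on many plates.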 Reagent sequences are not shown. Not stated in the record: the time to read-out.

gene | mean correlation with KSR1 profile | mean distance from KSR1 profile | KSR1 correlation, replicate 1 | KSR1 correlation, replicate 2 | KSR1 correlation, replicate 3
MAP3K14 (mitogen-activated protein kinase kinase kinase 14) | -0.356 | 2.76 | -0.263 | -0.346 | -0.451
AHSG (alpha 2-HS glycoprotein) | -0.25 | 2.49 | -0.0746 | -0.415 | -0.364
HTR6 (5-hydroxytryptamine receptor 6) | 0.766 | 1.51 | 0.821 | 0.609 | 0.66
BBS4 (Bardet-Biedl syndrome 4) | -0.287 | 1.85 | -0.392 | -0.376 | -0.235
GRM8 (glutamate metabotropic receptor 8) | 0.0259 | 2.68 | -0.276 | 0.0399 | 0.285
VPS72 (vacuolar protein sorting 72 homolog) | -0.513 | 2.16 | -0.559 | 0.0279 | -0.5
MT-ND2 (mitochondrially encoded NADH dehydrogenase 2) | -0.0908 | 1.4 | -0.12 | -0.215 | 0.109
FIBP (FGF1 intracellular binding protein) | 0.86 | 0.899 | 0.682 | 0.932 | 0.662
HMGN2 (high mobility group nucleosomal binding domain 2) | 0.343 | 2.23 | 0.351 | 0.411 | 0.314
ITPKC (inositol-trisphosphate 3-kinase C) | -0.43 | 2.65 | -0.0939 | -0.0718 | -0.794
PSMB2 (proteasome 20S subunit beta 2) | 0.41 | 4.63 | 0.424 | 0.517 | 0.262
ARFGAP2 (ARF GTPase activating protein 2) | 0.826 | 1.71 | 0.802 | 0.829 | 0.74
CNNM4 | 0.0122 | 2.22 | -0.0366 | 0.127 | -0.0493
TMC6 (transmembrane channel like 6) | 0.415 | 1.84 | 0.477 | 0.159 | 0.386
SLC5A1 | -0.538 | 2.55 | -0.5 | -0.517 | -0.424
RPL26 (ribosomal protein L26) | -0.00918 | 3.2 | -0.116 | -0.136 | 0.17
TAF11 (TATA-box binding protein associated factor 11) | -0.601 | 3.73 | -0.405 | -0.591 | -0.538
SFN (stratifin) | 0.108 | 2.56 | 0.285 | 0.149 | -0.122
SPIRE1 (spire type actin nucleation factor 1) | 0.783 | 1.57 | 0.623 | 0.814 | 0.544
ZNF408 (zinc finger protein 408) | 0.308 | 2.25 | 0.289 | 0.483 | 0.253
LAIR1 (leukocyte associated immunoglobulin like receptor 1) | -0.377 | 2.83 | -0.252 | -0.531 | -0.501
ARSA (arylsulfatase A) | -0.568 | 3.18 | -0.569 | -0.42 | -0.828
SEPTIN4 (septin 4) | -0.214 | 4.11 | -0.139 | -0.222 | -0.425
ZNF687 (zinc finger protein 687) | 0.631 | 1.38 | 0.704 | 0.441 | 0.637
UGT2B11 (UDP glucuronosyltransferase family 2 member B11) | -0.13 | 2.32 | 0.0516 | -0.173 | -0.181
ZNF44 (zinc finger protein 44) | 0.127 | 1.71 | 0.187 | 0.254 | 0.0421
DMBT1 (deleted in malignant brain tumors 1) | -0.0311 | 1.53 | -0.0474 | 0.0738 | -0.035
NHERF1 (NHERF family PDZ scaffold protein 1) | 0.269 | 2.06 | -0.21 | 0.538 | 0.587
DICER1 (dicer 1, ribonuclease III) | -0.275 | 3.46 | -0.291 | -0.217 | -0.231
BLTP3A (bridge-like lipid transfer protein family member 3A) | -0.157 | 1.34 | -0.0262 | -0.245 | -0.305

Reprinted from above (4 entries):
gene | mean correlation with KSR1 profile | mean distance from KSR1 profile | KSR1 correlation, replicate 1 | KSR1 correlation, replicate 2 | KSR1 correlation, replicate 3
LAIR1 (leukocyte associated immunoglobulin like receptor 1) | -0.377 | 2.83 | -0.252 | -0.531 | -0.501
ARSA (arylsulfatase A) | -0.568 | 3.18 | -0.569 | -0.42 | -0.828
SEPTIN4 (septin 4) | -0.214 | 4.11 | -0.139 | -0.222 | -0.425
ZNF687 (zinc finger protein 687) | 0.631 | 1.38 | 0.704 | 0.441 | 0.637

The listing continues:
gene | mean correlation with KSR1 profile | mean distance from KSR1 profile | KSR1 correlation, replicate 1 | KSR1 correlation, replicate 2 | KSR1 correlation, replicate 3
ATCAY (ATCAY kinesin light chain interacting caytaxin) | -0.0393 | 2.44 | -0.0194 | -0.0195 | -0.35
RPS21 (ribosomal protein S21) | -0.686 | 1.76 | -0.275 | -0.776 | -0.66
CHRNG (cholinergic receptor nicotinic gamma subunit) | 0.106 | 1.66 | 0.0766 | 0.0625 | -0.0861
PARK7 (Parkinsonism associated deglycase) | -0.283 | 4.32 | -0.536 | -0.236 | -0.399
CRABP1 (cellular retinoic acid binding protein 1) | -0.278 | 2.58 | -0.251 | -0.0253 | -0.6
TPT1 (tumor protein, translationally-controlled 1) | 0.0334 | 1.88 | -0.0926 | -0.0392 | 0.0842
GOLGA8A (golgin A8 family member A) | -0.55 | 3.22 | -0.639 | 0.661 | -0.0853
CAPZA2 (capping actin protein of muscle Z-line subunit alpha 2) | -0.375 | 2.02 | -0.344 | -0.364 | -0.412
DNASE2 (deoxyribonuclease 2, lysosomal) | -0.0741 | 1.88 | -0.00646 | -0.0366 | -0.174
MUC4 (mucin 4, cell surface associated) | -0.394 | 3.47 | -0.0997 | -0.648 | -0.287
LILRP2 (leukocyte immunoglobulin-like receptor pseudogene 2) | 0.141 | 2.02 | 0.186 | 0.084 | 0.107
CRTC3 (CREB regulated transcription coactivator 3) | -0.0281 | 1.17 | -0.49 | -0.313 | 0.233
SP4 (Sp4 transcription factor) | 0.178 | 2.91 | 0.185 | 0.0563 | 0.435
SIGIRR (single Ig and TIR domain containing) | -0.225 | 2.1 | -0.439 | -0.124 | -0.0933
CLEC5A (C-type lectin domain containing 5A) | -0.308 | 1.88 | 0.095 | -0.635 | -0.397
UQCC2 (ubiquinol-cytochrome c reductase complex assembly factor 2) | 0.248 | 2.08 | 0.11 | 0.209 | 0.286
ADD3 (adducin 3) | 0.109 | 1.12 | 0.205 | 0.0413 | -0.0758
SH3GLB2 (SH3 domain containing GRB2 like, endophilin B2) | -0.494 | 3.28 | -0.538 | -0.418 | -0.303
GLI1 (GLI family zinc finger 1) | 0.656 | 4.05 | 0.766 | 0.533 | 0.879
KCNH5 (potassium voltage-gated channel subfamily H member 5) | 0.0557 | 3.85 | 0.187 | 0.0548 | -0.247
